The assay can be described thus: qHTS Assay for Modulators of Lamin A Splicing. Conditions: HeLa LMNA splicing GFP/RFP minigene ratio, 48 h. Put shortly: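 Read-out is the ratio of GFP to DsRed2 object intensity, acquired by 488 nm laser-scanning cytometry on HeLa lamin A-EGFP minigene reporter cells. Compound incubation 48 hrs at 37 °C in Opti-MEM with 2% FBS; DMSO 0.5% final.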
[1] abbreviates: measured here: GFP splicing reporter channel.
Setting [2] is: measured here: RFP viability control channel.

Some of the results follow. The main result of the screen is listed elsewhere. These columns were measured beside it and carry no call. Compounds called inactive in the main read-out are mostly missing here. Words in brackets tell the shape of the fitted curve; partial curves, single points and poor fits give uncertain potencies.

One may read the AC50 as the concentration giving half of the maximal activity seen. In the case of `COC(=O)c1ccc(NC(=O)C2CCN(S(=O)(=O)c3ccc4c(c3)CCCN4C(C)=O)CC2)cc1`, the AC50 is 12.6 µM [falling, partial curve, poor fit] under setting [1] and 0.891 µM [falling, full curve, poor fit] under setting [2]. Turning to `CCC(=O)Nc1ccccc1C(=O)OC(c1ccccc1)c1ccccc1`, the half-maximal activity concentration (AC50) under setting [2] was 20 µM [rising, single point]. Still for that read-out and setting: to `O=C(Nc1ccccc1)C1CCN(C(=O)c2ccc([N+](=O)[O-])cc2)CC1` belongs 0.501 µM [falling, single point]. As to `COc1ccc(-c2nc3ccccc3c(C(=O)Nc3ccc(S(=O)(=O)Nc4cc(C)on4)cc3)c2C)cc1`, the AC50 under setting [2] is 11.2 µM [rising, partial curve]. Turning to `CCCc1nnc(NC(=O)CCC(=O)N2CCN(CCOc3ccc(C)cc3)CC2)s1`, the AC50 reads like this: under setting [1], 5.01 µM [rising, full curve, poor fit]; under setting [2], 7.08 µM [rising, full curve]. Take `O=C(Nc1cccc(S(=O)(=O)N2CCCCCC2)c1)c1ccc2c(c1)OCO2`: the AC50 is, setting by setting: under setting [1], 11.2 µM [rising, partial curve, poor fit]; under setting [2], 15.8 µM [rising, partial curve]. Consider `CCOc1cc(NC(=O)c2ccco2)c(OCC)cc1NC(=O)c1cc(OC)c(OC)c(OC)c1`, for which, under setting [1], the concentration at half-maximal activity (AC50) was 5.62 µM [rising, partial curve]. For `Cc1nc(-n2cc(F)c(=O)[nH]c2=O)c2nc(C)oc2n1`, the concentration at half-maximal activity (AC50) under setting [2] was 12.6 µM [rising, single point]. Turning to `COc1ccc(/C=C2\CCC(C3CCCC3)C2=O)cc1Cn1cccn1` (configuration not stated), the half-maximal activity concentration (AC50) under setting [1] was 35.5 µM [rising, single point]. For `Cc1cccc(NC(=O)CSc2nnc(-c3cc(C)n(-c4ccccc4)c3C)o2)c1C`, the half-maximal activity concentration (AC50) under setting [2] is 12.6 µM [rising, single point]. Turning to `CCc1ccc(CNC(=O)c2cnc3sc(N(CC)CC)nn3c2=O)cc1`, the AC50 reads like this: under setting [1], 0.0562 µM [falling, full curve, poor fit]; under setting [2], 0.2 µM [falling, full curve]. As for `CN(c1ccc([N+](=O)[O-])cc1C(N)=O)C1CCCCC1`, under setting [1], the AC50 was 11.2 µM [rising, partial curve, poor fit]. On the same count and under the same terms, to `COc1ccccc1NC(=O)CC1SC(=N)N(c2ccccc2)C1=O` (configuration not stated) belongs 0.0112 µM [rising, full curve, poor fit].

For `Cc1ccc(Cl)cc1N1CCN(S(=O)(=O)c2ccc3c(c2)CC(=O)N3C)CC1`, the AC50 by setting is: under setting [1], 22.4 µM [falling, partial curve, poor fit]; under setting [2], 10 µM [falling, partial curve].

Consider `CCOc1ccc(CN2CCN(S(=O)(=O)c3ccc(NC(C)=O)cc3)CC2)cc1OC`, for which the AC50 is 12.6 µM [rising, single point] under setting [1] and 15.8 µM [rising, single point] under setting [2]. As to `Cc1cc(Nc2cccc(C(F)(F)F)c2)nc2ccc(NC(=O)c3cncc(Br)c3)cc12`, the AC50 is, setting by setting: under setting [1], 5.01 µM [falling, partial curve]; under setting [2], 5.01 µM [falling, partial curve]. On to `Cc1cc(C)c(NC(=O)c2cc3c(nc4sccn43)s2)c(C)c1`, for which, under setting [2], the concentration at half-maximal activity (AC50) is 35.5 µM [rising, single point]. Same read-out and setting: the result for `Cn1c(=O)oc2cc(S(=O)(=O)N3CCCC(C(=O)Nc4nccs4)C3)ccc21` (configuration not stated) reads 14.1 µM [rising, single point]. For the compound `CCOC(=O)N1CCN(CC(=O)Nc2c(C(=O)OC)[nH]c3ccccc23)CC1`, the concentration at half-maximal activity (AC50) was 17.8 µM [rising, single point] under setting [1] and 31.6 µM [rising, single point] under setting [2].

In the case of `COc1ccc(-c2ccc(C(c3c(C)[nH][nH]c3=O)c3c(C)[nH][nH]c3=O)o2)c([N+](=O)[O-])c1`, under setting [2], the concentration at half-maximal activity (AC50) is 14.1 µM [rising, partial curve, poor fit].

In the case of `CC(C)OC(=O)c1c(NC(=O)c2cc3nc(-c4ccccc4)cc(C(F)(F)F)n3n2)sc2c1CCCC2`, the half-maximal activity concentration (AC50) under setting [1] was 0.00447 µM [rising, full curve, poor fit]. For `CCc1ccc(-n2c(=O)c3c(C)c(C(=O)N(C)C)sc3n(CC(=O)NCc3ccco3)c2=O)cc1`, the AC50 runs as follows: under setting [1], 22.4 µM [falling, single point]; under setting [2], 22.4 µM [falling, single point]. Consider `Cc1cccc(N=C(NO)c2nonc2N)c1`, for which the AC50 under setting [1] was 31.6 µM [rising, single point] and the concentration at half-maximal activity (AC50) under setting [2] was 35.5 µM [rising, single point]. As for `CC(=O)c1ccc(NC(=O)CN2C(=O)CCc3cc(S(=O)(=O)N4CCC(C)CC4)ccc32)cc1`, under setting [2], the AC50 is 5.62 µM [rising, single point].

For the compound `CN(c1ccccc1)S(=O)(=O)c1cc(C(=O)N2CCN(c3ccccn3)CC2)ccc1Cl`, the AC50 is 17.8 µM [rising, partial curve, poor fit] under setting [1] and 25.1 µM [rising, partial curve] under setting [2]. As to `Cc1nn(-c2ccccc2)c(C)c1NC(=O)COc1ccc2ccccc2c1`, under setting [2], the concentration at half-maximal activity (AC50) is 8.91 µM [rising, partial curve]. On the same count and under the same terms, the result for `Cc1cc(C)cc(NS(=O)(=O)c2ccc3[nH]cc(C(=O)NCc4ccco4)c(=O)c3c2)c1` reads 2.24 µM [rising, full curve, poor fit]. In the case of `CCC(C)n1c(SCc2ccc([N+](=O)[O-])cc2)nc2ccsc2c1=O` (configuration not stated), the AC50 by setting is: under setting [1], 17.8 µM [rising, single point]; under setting [2], 35.5 µM [rising, single point]. Take `Cc1ccc(-c2cc(C(=O)Nc3cc(C)on3)c3ccccc3n2)c(C)c1`: the AC50 under setting [2] was 31.6 µM [rising, single point]. For `Cn1c(=O)c(C(=O)COC(=O)c2cc(C3CC3)nc3ccccc23)c(N)n(Cc2ccccc2)c1=O`, the AC50 is, setting by setting: under setting [1], 14.1 µM [rising, single point]; under setting [2], 22.4 µM [rising, single point].

`O=[N+]([O-])c1nn(-c2ccc3c(c2)OCCO3)n(O)c1=NCCCO`: under setting [2], the half-maximal activity concentration (AC50) was 0.178 µM [falling, full curve, poor fit]. On the same count and under the same terms, the result for `CC(=O)c1ccc(-n2c(SCC(=O)c3c[nH]c4ccccc34)nc3ccccc3c2=O)cc1` reads 1.41 µM [rising, partial curve]. Turning to `O=c1ccc2ccc(Oc3ccc([N+](=O)[O-])cc3[N+](=O)[O-])cc2o1`, the AC50 was 15.8 µM [rising, single point] under setting [1] and 35.5 µM [rising, single point] under setting [2].
